The target of the test is Ectodomain of GABABR1a comprising SD1, expressed on HEK293 cells with N-terminal His-tag (human) (UniProt Q9UBS5). In words: flow cytometry on HEK293 cells expressing the GABABR1a ectodomain, competition against biotinylated 9-mer. Background: Flow cytometry measures light scatter and fluorescence of single cells or particles in a stream.

Chains of the proteins cited; added tags and fusions are not shown. Residues count along the entry.
UniProt Q9UBS5, residues 20-591: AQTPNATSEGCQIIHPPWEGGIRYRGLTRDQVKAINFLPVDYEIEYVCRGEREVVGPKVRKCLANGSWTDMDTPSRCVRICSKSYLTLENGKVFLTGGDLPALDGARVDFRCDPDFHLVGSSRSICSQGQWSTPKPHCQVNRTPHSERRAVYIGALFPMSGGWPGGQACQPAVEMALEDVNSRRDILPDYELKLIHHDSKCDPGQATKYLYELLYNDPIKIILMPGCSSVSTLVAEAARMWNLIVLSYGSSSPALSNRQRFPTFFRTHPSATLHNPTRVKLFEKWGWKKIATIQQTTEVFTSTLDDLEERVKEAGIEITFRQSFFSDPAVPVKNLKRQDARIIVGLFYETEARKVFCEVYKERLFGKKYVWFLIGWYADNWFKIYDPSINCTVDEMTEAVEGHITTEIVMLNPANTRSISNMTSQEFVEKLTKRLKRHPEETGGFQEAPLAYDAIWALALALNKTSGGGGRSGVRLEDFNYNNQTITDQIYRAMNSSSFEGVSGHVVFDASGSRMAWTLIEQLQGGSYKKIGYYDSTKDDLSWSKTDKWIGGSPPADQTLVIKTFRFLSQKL

Results are given in words; binding and its absence hold for the method and conditions named. Some entries that bind do so weakly or less than the wild type.

B1: VIB_P33 (peptide)
peptide: DVWWG
notes: also called DVWWG 5-mer; wild-type 5-mer
Regarding B1, the binding entry is “binds”. Regarding DIWWS (also called VIB_34; DIWWS) [VIB_P34], the binding result is “binds”.

Source of the values: patent US20240376149A1, “Novel Modulators of GABABR1a” (VIB VZW, priority 2021, published 2024).
